Measurements as given in PMC2416439.
These are yes or no findings as the source states them, for the method shown. Binding seen in cells or lysates may run through a third protein. Some entries that bind do so weakly or less than the wild type.

Target: T1, Serum responsive factor (SRF) (mouse (endogenous in hippocampus)) (UniProt Q9JM73)
T1 sequence: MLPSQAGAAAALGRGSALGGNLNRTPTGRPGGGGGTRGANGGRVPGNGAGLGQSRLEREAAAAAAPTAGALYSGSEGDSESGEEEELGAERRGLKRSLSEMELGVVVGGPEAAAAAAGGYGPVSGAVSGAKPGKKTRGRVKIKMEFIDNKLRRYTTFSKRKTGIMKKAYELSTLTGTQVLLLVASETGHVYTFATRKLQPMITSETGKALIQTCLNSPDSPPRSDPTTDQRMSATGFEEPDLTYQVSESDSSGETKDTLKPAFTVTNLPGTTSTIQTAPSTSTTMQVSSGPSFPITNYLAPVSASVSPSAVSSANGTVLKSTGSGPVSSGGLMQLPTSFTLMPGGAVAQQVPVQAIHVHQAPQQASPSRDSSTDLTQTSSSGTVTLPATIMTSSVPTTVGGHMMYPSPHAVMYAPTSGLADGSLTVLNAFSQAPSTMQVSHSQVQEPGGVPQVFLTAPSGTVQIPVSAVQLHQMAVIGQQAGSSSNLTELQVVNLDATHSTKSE
Assay: co-IP; IP of SRF from hippocampal extracts; Western blot with HOP antibody

binding: binds
B1: HOP (Homeodomain only protein) (protein, UniProt Q8R1H0 1-73)
chain: MSAQTASGPTEDQVEILEYNFNKVNKHPDPTTLCLIAAEAGLTEEQTQKWFKQRLAEWRRSEGLPSECRSVTD
